Source: PubChem BioAssay AID2685 (National Center for Advancing Translational Sciences (NCATS), 2010)
Hit rate of the full screen: of about 320,000 compounds, about 2,100 (0.66%) were called active. Inconclusive means that the source gave no clear call. Such entries were picked first, then a sample of the others. Calls follow the shape of the dose curve; as a rule, active = well fitted inhibition curve with a large enough effect in the signal ratio, with a control signal flat (not every such curve was filed as active); inconclusive = small, poorly fitted or top-dose-only effect, or effect the other way, or a change in a side signal; inactive = flat fitted curve, though single readings scatter; the % refers to the signal ratio. Where the call is inconclusive, the potency comes from a doubtful curve fit.

Experiment: qHTS Assay for Lipid Storage Modulators in Drosophila S3 Cells
Conditions: BODIPY lipid droplet fluorescence, 18-24 h, cells fed with added oleic acid; lipid storage change, negative = inhibition: at 46.1 µM (top of the series) unless noted
In short: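 Drosophila S3 cells got compounds at several concentrations plus oleic acid (400 uM solution). Laser-scanning cytometry with 488 nm excitation read lipid droplets at 500-530 nm and cells at 575-640 nm. Percent activity was relative to 20 uM Triacsin C.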
% is scaled to controls: 0 for no effect and ±100 for the full control effect; potency is read from the fitted curve at half-maximal effect.

Row | Compound | lipid storage change, negative = inhibition | Potency | outcome
1 | CCOC(=O)CC(NS(=O)(=O)c1ccc2[nH]cc(C(=O)O)c(=O)c2c1)c1ccc(OCC)c(OC)c1 (centres undefined) | inconclusive: -100% |  | 
2 | Cn1nc(C(=O)Nc2cccc(S(=O)(=O)N3CCCC3)c2)c2ccccc2c1=O | inconclusive: -12.8% |  | 
3 | COc1ccc(N2C(=O)C(CC(=O)Nc3ccc(F)cc3)N(CCc3cccs3)C2=O)cc1 (centres undefined) |  | inconclusive: 29.1 µM [activator, single point] | 
4 | Cc1ccc(C(=O)CCC(=O)NN2C(=O)NC3(CCCCC3)C2=O)cc1 |  | inconclusive: 20.6 µM [falling, single point] | 
5 | Cc1noc(C)c1C(=O)N1CCC(CO)(Cc2ccccc2)CC1 | inconclusive: -27.2% |  | 
6 | CC1CCCN(S(=O)(=O)c2ccc(NC(=O)Cn3nnc(-c4ccccc4F)n3)cc2)C1 (centres undefined) | inconclusive: -23.6% |  | 
7 | CN(C(=O)COC(=O)C1CCN(S(=O)(=O)c2ccc3c(c2)OCCO3)CC1)c1ccccc1 |  | inconclusive: 32.6 µM [falling, single point] | 
8 | Cn1nccc1C(=O)Nc1cccc(S(=O)(=O)N2CCOCC2)c1 |  | inconclusive: 18.4 µM [falling, single point] | 
9 | CCC(C)NC(=O)C1CCN(S(=O)(=O)c2ccc(-n3cnnn3)cc2)CC1 (centres undefined) | inconclusive: -17.4% |  | 
10 | Cn1c(=O)c2c(ncn2CC(=O)N2CCN(S(=O)(=O)c3ccc(F)cc3)CC2)n(C)c1=O | inconclusive: -16.2% |  | 
11 | COc1cc(C(=O)Nc2cccc(-n3cnnn3)c2)cc(OC)c1OC | inconclusive: -32.1% |  | 
12 | Cc1cc2cc(CNC(=O)c3cc4ccccc4o3)ccc2n1C |  | inconclusive: 2.06 µM [activator, single point] | 
13 | COc1ccccc1C#Cc1ccc2c(=O)c3ccccc3n(C)c2c1 |  | inconclusive: 2.06 µM [falling, full curve, poor fit] | 
14 | N#CC1=C(N)C(C#N)(C#N)[C@H](c2ccsc2)[C@H]2COCC=C12 | inconclusive: 60.2% |  | 
15 | Cc1nc(NC2=NCN(CCCN3CCOCC3)CN2)nc2c(C)cccc12 |  |  | inactive [at 46.1 µM]
16 | COc1ccc(-c2ccc(SCC(=O)N3CCOCC3)nn2)cc1 | inconclusive: 32% |  | 
17 | C/C(=N\NC(=O)c1ccc(Cl)c(S(=O)(=O)Nc2ccccc2Cl)c1)c1ccncc1 |  | inconclusive: 0.058 µM [rising, full curve, poor fit] | 
18 | COCCN(C(=O)c1cc(S(=O)(=O)N2CCCCC2)ccc1Cl)c1c(N)n(CC(C)C)c(=O)[nH]c1=O | inconclusive: 7.62% |  | 
19 | COc1cc(NC(=O)c2c(F)c(F)c(OC)c(F)c2F)ccc1NC(=O)c1cccs1 | inconclusive: -67.6% |  | 
20 | CCCCN(C(=O)c1ccc(C)cc1)c1c(N)n(CCC)c(=O)[nH]c1=O | inconclusive: -13% |  | 
21 | O=C(CCC(=O)OCC(=O)c1ccc(-c2ccccc2)cc1)Nc1cccc2cccnc12 | inconclusive: 12.7% |  | 
22 | O=C(COC(=O)c1ccc2c(c1)OCO2)Nc1ccccc1Cl |  | inconclusive: 0.517 µM [falling, single point] | 
23 | CC(C)c1ccccc1NC(=S)NC1CCCCC1 | inconclusive: 12.9% |  | 
24 | Cc1ccc(S(=O)(=O)NC2CC(C)(C)NC(C)(C)C2)cc1 | inconclusive: 88.2% |  | 
25 | COc1ccc(OC)c(NC(=O)CSc2nc3c(c(=O)n(C)c(=O)n3C)n2C)c1 |  | inconclusive: 0.164 µM [activator, full curve] | 

An excerpt of these results, as comma-separated lines:
Row,Compound,"lipid storage change, negative = inhibition",Potency,outcome
21,O=C(CCC(=O)OCC(=O)c1ccc(-c2ccccc2)cc1)Nc1cccc2cccnc12,inconclusive: 12.7%,,
24,Cc1ccc(S(=O)(=O)NC2CC(C)(C)NC(C)(C)C2)cc1,inconclusive: 88.2%,,

Following part

Row | Compound | lipid storage change, negative = inhibition | Potency | outcome
26 | CC(=O)N1CC=C2C(C#N)=C(N)C(C#N)(C#N)C(CCc3ccccc3)C2C1 (centres undefined) | inconclusive: 97.6% |  | 
27 | COc1ccc(OC)c2c1sc(=NC(=O)c1ccco1)n2C |  | inconclusive: 0.651 µM [falling, single point] | 
28 | O=C(Nc1nnc(C2CC2)s1)C1CC(=O)N(c2ccc3c(c2)OCCO3)C1 (centres undefined) | inconclusive: 39.3% [activator] |  | 
29 | O=C(CCNC(=O)c1ccc(Br)cc1)NCC1CCCO1 (centres undefined) | inconclusive: 0.23% |  | 
30 | CN(C)CCNc1nc(-c2ccccc2)nnc1C(F)(F)F | inconclusive: 5.73% |  | 
31 | O=[N+]([O-])c1ccc(/C=N/Nc2ccc3ccccc3c2)o1 |  | inconclusive: 4.61 µM [falling, full curve] | 
32 | CCOC(=O)c1c(C)c(C(=O)Nc2cc(OC)ccc2OC)c(C)n1CC | inconclusive: -33.6% |  | 
33 | Cc1nn2c(=O)cc(CSCC(=O)Nc3ccccc3F)nc2s1 |  | inconclusive: 14.6 µM [activator, partial curve] | 
34 | O=C(CN(Cc1ccccc1)S(=O)(=O)c1ccccc1)N/N=C/c1ccccc1[N+](=O)[O-] | inconclusive: -28.8% |  | 
35 | COc1ccc(Cl)c(OC)c1C(=O)NC(=O)Nc1c(F)cc(F)cc1F | inconclusive: 4.45% |  | 
36 | CCn1c(SCC(=O)NC2CCCCC2C)nnc1-c1ccc(OC)cc1 (centres undefined) | inconclusive: 0.576% |  | 
37 | CCSc1nc2c(c(=O)[nH]1)C(c1ccc(C)cc1)C1=C(CCCC1=O)N2 (centres undefined) | inconclusive: 0.753% |  | 
38 | CC(NC(=O)c1ccccc1F)c1nnc(SCC(=O)NC2CCCCC2)n1C (centres undefined) | inconclusive: -18.2% |  | 
39 | Cc1ccc(OCC(=O)c2c(O)c3ccccc3oc2=O)cc1C | inconclusive: 30% |  | 
40 | COCCN(C(=O)CSc1n[nH]c(-c2ccccc2)n1)c1c(N)n(Cc2ccccc2)c(=O)[nH]c1=O |  | inconclusive: 29.1 µM [activator, single point] | 
41 | CCCCN(C(=O)CSc1nnc(Nc2ccccc2)s1)c1c(N)n(CCC)c(=O)[nH]c1=O | inconclusive: 17.5% |  | 
42 | CCCN(CC(=O)Nc1ccccc1OC)C(=O)c1cnc(Cl)c(Cl)c1 | inconclusive: -0.47% |  | 
43 | COc1ccc(NC(=O)CCCn2nc(C)c3c(C)n(-c4ccccc4)nc3c2=O)cc1 | inconclusive: -10.4% |  | 
44 | O=C(NC1CCCC1)C(c1ccco1)N(C(=O)c1ccco1)c1ccccc1 (centres undefined) |  | inconclusive: 0.116 µM [activator, single point] | 
45 | CC(=O)Nc1ccccc1OCC(=O)NC(C)c1ccccc1 (centres undefined) | inconclusive: -0.188% |  | 
46 | CC1CC(=O)Nc2ccccc2N1C(=O)Nc1ccc(F)cc1F (centres undefined) | inconclusive: -17.4% |  | 
47 | CN(C)Cc1ccccc1Sc1ccc(Br)cc1 | inconclusive: 0.949% |  | 
48 | COCCCN(C(=O)CCOc1ccc(C(C)(C)C)cc1)c1c(N)n(Cc2ccccc2)c(=O)[nH]c1=O | inconclusive |  | 
49 | COc1cccc(-c2c(C(=O)N/N=C(\C)c3ccco3)nnn2-c2nonc2N)c1 | inconclusive: 51.1% |  | 
50 | COc1ccc(-c2[nH]ncc2CN(C)C(C)c2ccon2)c(OC)c1 (centres undefined) | inconclusive: -3.76% |  | 

Of the compounds above, these have a nitro group on carbon.
Row | Compound | lipid storage change, negative = inhibition | Potency | outcome
31 | O=[N+]([O-])c1ccc(/C=N/Nc2ccc3ccccc3c2)o1 |  | inconclusive: 4.61 µM [falling, full curve] | 
34 | O=C(CN(Cc1ccccc1)S(=O)(=O)c1ccccc1)N/N=C/c1ccccc1[N+](=O)[O-] | inconclusive: -28.8% |  | 

(further entries)

Row | Compound | lipid storage change, negative = inhibition | Potency | outcome
51 | CCOc1nc(NC(=O)NS(=O)(=O)c2cccc(Cl)c2)nc(-c2ccccc2)n1 | inconclusive: 24.3% |  | 
52 | Cc1cccc(NC2(C(F)(F)F)N=C(c3ccccc3)NC2=O)n1 (centres undefined) | inconclusive: 6.71% |  | 
53 | COc1ccc(-c2nc(CNS(=O)(=O)c3cc(OC)ccc3OC)cs2)cc1 |  | inconclusive: 8.2 µM [activator, partial curve] | 
54 | CCCN1Cc2cccc(C(=O)Nc3ccc(CN4CCCC4)cc3)c2C1=O | inconclusive: 4.14% |  | 
55 | Cc1ccc(N(CC(=O)NCc2ccccc2)C(=O)c2csnn2)c(C)c1 |  | inconclusive: 29.1 µM [activator, single point] | 
56 | Cc1cc(C(=O)CSc2nnc(N)s2)c(C)n1-c1c(C)n(C)n(-c2ccccc2)c1=O | inconclusive: -1.95% |  | 
57 | CCN1CCN(c2ccc(S(=O)(=O)N3CCOCC3)cc2NC(=O)c2ccc(C)cc2C)CC1 | inconclusive: 11.3% |  | 
58 | O=C(O)c1ccc(N/N=C/C=C/c2ccccc2[N+](=O)[O-])cc1 | inconclusive: -8.96% |  | 
59 | CC(NC(=O)c1ccccc1F)c1nnc(SCC(=O)Nc2nnc(C3CC3)s2)n1C (centres undefined) | inconclusive: -5.73% |  | 
60 | COc1ccc(S(=O)(=O)N2CCCCCC2)cc1C(=O)N(CC(C)C)C1CCS(=O)(=O)C1 (centres undefined) | inconclusive: 24.3% |  | 
61 | COc1ccc(C(=O)NC2CCN(CC(=O)Nc3c(C)cccc3C)CC2)cc1OC |  | inconclusive: 29.1 µM [activator, single point] | 
62 | O=C(CC(NS(=O)(=O)c1ccc(Cl)cc1)c1ccco1)NCc1ccco1 (centres undefined) | inconclusive: -18.2% |  | 
63 | O=C(O)c1ccc(NCc2nc3ccccc3n2Cc2ccccc2)cc1 |  | inconclusive: 0.146 µM [activator, full curve, poor fit] | 
64 | Cc1cccc(N(Cc2ccccc2)C(=O)c2cccc(S(=O)(=O)N3CC(C)OC(C)C3)c2)c1 (centres undefined) |  | inconclusive: 0.366 µM [falling, full curve, poor fit] | 
65 | O=C(NCc1ccc2c(c1)OCO2)C1CC(=O)N(c2ccc(Cl)cc2)C1 (centres undefined) |  | inconclusive: 6.51 µM [falling, single point] | 
66 | CCCC[n+]1ccn(-c2nc3c([N+](=O)[O-])cccc3n2C)c1 | inconclusive: -22.8% |  | 
67 | O=C(CNc1cccc2ccccc12)N/N=C/c1ccc([N+](=O)[O-])o1 |  | active: 16.4 µM | 
68 | Cn1c(Cc2ccccc2)[n+](C)c2ccccc21 | inconclusive: 29.4% |  | 
69 | Cc1ccc2[nH]c3c(c2c1)CN(C(=O)CN1CCN(C(=O)c2ccco2)CC1)CC3 |  | inconclusive: 29.1 µM [falling, single point] | 
70 | O=C(CSC1=NS(=O)(=O)c2cc(Cl)ccc2N1)Nc1ccccc1F | inactive: 1.27% |  | 
71 | CN(C)c1nc2n(c(=O)n1)CCO2 | inconclusive: -18.4% |  | 
72 | O=C(CSc1nc(=O)n(CCCN2CCOCC2)c2c1CCCC2)Nc1cccc(F)c1 | inconclusive: -26.5% |  | 
73 | Cc1ccc(-c2nnn(CC(=O)N(c3cccc(O)c3)C(C(=O)NC(C)(C)C)c3cccs3)n2)o1 (centres undefined) | inconclusive: 16% |  | 
74 | CC(C)NC(=O)C(=O)NCCc1ccc(Cl)cc1 | inconclusive: 39.3% |  | 
